Publication PMC6005845 (Frontiers in Cardiovascular Medicine, 2018)

Test system: liver
Assay: Liver gene expression analysis (RNA sequencing) and pathway analysis
Assay type: in vivo, APOE*3Leiden.CETP mice
Settings: Bayes p < 0.01
Method: To find early molecular signatures of other clinically relevant processes induced by the anti-CML drugs, gene expression and pathway analysis was performed in the liver as the central organ in lipid metabolism and synthesis of coagulation factors. To identify drug-specific molecular responses and overlap between the various treatments, the total number of differentially expressed genes (DEG) was assessed and a Venn-diagram was constructed comprising all DEG compared to control group. […]
Messenger RNA was isolated from liver of 8 mice per group, using the NEBNext Ultra RNA
sample Prep Kit. After fragmentation of the mRNA, cDNA synthesis was performed. The

SMILES | Number of differentially expressed genes versus control group (150 mg/kg BID) | Number of differentially expressed genes versus control group (10 mg/kg QD) | Number of differentially expressed genes versus control group (30 mg/kg QD) | Number of differentially expressed genes versus control group (3 mg/kg QD)
Cc1ccc(NC(=O)c2ccc(CN3CCN(C)CC3)cc2)cc1Nc1nccc(-c2cccnc2)n1 [Imatinib, imatinib] | 1575 |  |  | 
Cc1cn(-c2cc(NC(=O)c3ccc(C)c(Nc4nccc(-c5cccnc5)n4)c3)cc(C(F)(F)F)c2)cn1 [Nilotinib, nilotinib] |  | 474 | 1066 | 
Cc1ccc(C(=O)Nc2ccc(CN3CCN(C)CC3)c(C(F)(F)F)c2)cc1C#Cc1cnc2cccnn12 [Ponatinib, ponatinib] |  | 1344 |  | 504
